The test deals with T1, Unc45b^Flag, bacteria expressed and purified (mouse) (UniProt Q8CGY6).
T1 sequence: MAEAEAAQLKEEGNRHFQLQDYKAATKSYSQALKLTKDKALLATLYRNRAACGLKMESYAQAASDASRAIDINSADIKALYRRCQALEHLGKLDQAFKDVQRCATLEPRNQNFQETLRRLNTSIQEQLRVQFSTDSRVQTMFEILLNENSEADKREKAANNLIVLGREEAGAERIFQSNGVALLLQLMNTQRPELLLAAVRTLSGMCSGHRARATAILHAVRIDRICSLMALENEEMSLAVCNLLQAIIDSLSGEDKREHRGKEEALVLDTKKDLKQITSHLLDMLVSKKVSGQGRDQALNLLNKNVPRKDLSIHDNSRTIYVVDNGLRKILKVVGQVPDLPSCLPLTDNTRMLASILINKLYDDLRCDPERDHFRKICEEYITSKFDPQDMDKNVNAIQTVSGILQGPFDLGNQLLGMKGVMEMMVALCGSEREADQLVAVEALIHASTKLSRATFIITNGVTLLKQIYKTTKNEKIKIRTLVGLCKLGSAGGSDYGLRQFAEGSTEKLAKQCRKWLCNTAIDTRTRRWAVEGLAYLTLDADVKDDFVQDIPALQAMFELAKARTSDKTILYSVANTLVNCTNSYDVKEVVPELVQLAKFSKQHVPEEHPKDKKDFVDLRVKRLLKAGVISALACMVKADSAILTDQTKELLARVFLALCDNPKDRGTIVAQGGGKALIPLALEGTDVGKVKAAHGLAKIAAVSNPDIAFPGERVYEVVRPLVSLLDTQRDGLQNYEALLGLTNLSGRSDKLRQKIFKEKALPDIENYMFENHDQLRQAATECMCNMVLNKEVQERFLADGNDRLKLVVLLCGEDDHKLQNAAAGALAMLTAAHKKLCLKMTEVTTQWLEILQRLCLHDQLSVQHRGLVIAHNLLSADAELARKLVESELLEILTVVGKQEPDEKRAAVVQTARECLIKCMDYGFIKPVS
The experiment in a line: SEC; Superose 6 HR 10/300, 50 mM Tris-HCl pH 7.4, 150 mM NaCl, 1 mM DTT; purified proteins run alone or as a complex formed from equimolar amounts; both purified.

Experimental findings from PMC2377097 are described below.

No constants are given. Whether binding was seen depends on the method and setting. Where a sequence is shown, tags or fusion partners need not be part of it.

B1: Unc45b^Flag, bacteria expressed and purified (protein, UniProt Q8CGY6 1-931)
chain: MAEAEAAQLKEEGNRHFQLQDYKAATKSYSQALKLTKDKALLATLYRNRAACGLKMESYAQAASDASRAIDINSADIKALYRRCQALEHLGKLDQAFKDVQRCATLEPRNQNFQETLRRLNTSIQEQLRVQFSTDSRVQTMFEILLNENSEADKREKAANNLIVLGREEAGAERIFQSNGVALLLQLMNTQRPELLLAAVRTLSGMCSGHRARATAILHAVRIDRICSLMALENEEMSLAVCNLLQAIIDSLSGEDKREHRGKEEALVLDTKKDLKQITSHLLDMLVSKKVSGQGRDQALNLLNKNVPRKDLSIHDNSRTIYVVDNGLRKILKVVGQVPDLPSCLPLTDNTRMLASILINKLYDDLRCDPERDHFRKICEEYITSKFDPQDMDKNVNAIQTVSGILQGPFDLGNQLLGMKGVMEMMVALCGSEREADQLVAVEALIHASTKLSRATFIITNGVTLLKQIYKTTKNEKIKIRTLVGLCKLGSAGGSDYGLRQFAEGSTEKLAKQCRKWLCNTAIDTRTRRWAVEGLAYLTLDADVKDDFVQDIPALQAMFELAKARTSDKTILYSVANTLVNCTNSYDVKEVVPELVQLAKFSKQHVPEEHPKDKKDFVDLRVKRLLKAGVISALACMVKADSAILTDQTKELLARVFLALCDNPKDRGTIVAQGGGKALIPLALEGTDVGKVKAAHGLAKIAAVSNPDIAFPGERVYEVVRPLVSLLDTQRDGLQNYEALLGLTNLSGRSDKLRQKIFKEKALPDIENYMFENHDQLRQAATECMCNMVLNKEVQERFLADGNDRLKLVVLLCGEDDHKLQNAAAGALAMLTAAHKKLCLKMTEVTTQWLEILQRLCLHDQLSVQHRGLVIAHNLLSADAELARKLVESELLEILTVVGKQEPDEKRAAVVQTARECLIKCMDYGFIKPVS
With B1, the binding entry is recorded as “no binding”.
